# Laboratory results reported in the supplement of paper PMC12819154, “High-throughput peptide-centric local stability assay extends protein–ligand identification to membrane proteins, tissues and bacteria” (Nature Structural & Molecular Biology, 2025).
# Chains of the proteins cited; added tags and fusions are not shown. Lines headed by an entry give the natural chain unless they say otherwise; changes in a name come on top.
# UniProt P52594: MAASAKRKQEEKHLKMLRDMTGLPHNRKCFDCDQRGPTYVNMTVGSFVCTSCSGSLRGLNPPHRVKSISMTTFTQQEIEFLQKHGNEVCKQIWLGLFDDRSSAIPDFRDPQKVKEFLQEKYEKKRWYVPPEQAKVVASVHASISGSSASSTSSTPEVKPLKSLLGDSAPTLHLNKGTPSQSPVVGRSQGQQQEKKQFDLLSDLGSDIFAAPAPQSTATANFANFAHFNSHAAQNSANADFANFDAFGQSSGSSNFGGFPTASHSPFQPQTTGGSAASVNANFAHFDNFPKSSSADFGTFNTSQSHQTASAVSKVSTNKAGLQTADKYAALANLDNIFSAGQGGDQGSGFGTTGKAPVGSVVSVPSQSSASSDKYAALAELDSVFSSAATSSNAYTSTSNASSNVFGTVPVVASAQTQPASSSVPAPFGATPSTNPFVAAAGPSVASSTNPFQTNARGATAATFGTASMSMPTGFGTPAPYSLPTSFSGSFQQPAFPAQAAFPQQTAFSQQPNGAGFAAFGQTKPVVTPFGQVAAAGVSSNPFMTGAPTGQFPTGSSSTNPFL
# UniProt P52630: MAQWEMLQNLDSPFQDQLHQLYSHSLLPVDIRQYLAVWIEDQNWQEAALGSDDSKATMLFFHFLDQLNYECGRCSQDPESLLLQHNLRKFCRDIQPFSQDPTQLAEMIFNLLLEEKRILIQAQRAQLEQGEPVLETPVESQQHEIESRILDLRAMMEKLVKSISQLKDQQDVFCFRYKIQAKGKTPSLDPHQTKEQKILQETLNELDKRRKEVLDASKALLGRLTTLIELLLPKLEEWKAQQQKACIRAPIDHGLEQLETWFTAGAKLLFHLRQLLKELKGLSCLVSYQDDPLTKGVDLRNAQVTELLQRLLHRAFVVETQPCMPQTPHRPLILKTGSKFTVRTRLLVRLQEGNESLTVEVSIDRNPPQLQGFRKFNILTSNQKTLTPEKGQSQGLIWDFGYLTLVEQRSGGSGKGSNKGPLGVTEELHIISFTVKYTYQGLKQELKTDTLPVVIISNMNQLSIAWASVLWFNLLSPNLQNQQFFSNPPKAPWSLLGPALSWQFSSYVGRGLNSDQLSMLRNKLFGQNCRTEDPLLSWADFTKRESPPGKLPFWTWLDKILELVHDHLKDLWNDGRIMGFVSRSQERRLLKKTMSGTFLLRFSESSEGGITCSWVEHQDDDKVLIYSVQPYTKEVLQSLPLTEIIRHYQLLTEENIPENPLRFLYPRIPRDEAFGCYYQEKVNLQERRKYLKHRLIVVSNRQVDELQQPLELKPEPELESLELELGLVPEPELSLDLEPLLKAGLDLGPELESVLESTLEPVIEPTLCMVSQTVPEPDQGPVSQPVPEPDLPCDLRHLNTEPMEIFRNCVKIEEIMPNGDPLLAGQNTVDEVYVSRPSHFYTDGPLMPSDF
# UniProt P46199: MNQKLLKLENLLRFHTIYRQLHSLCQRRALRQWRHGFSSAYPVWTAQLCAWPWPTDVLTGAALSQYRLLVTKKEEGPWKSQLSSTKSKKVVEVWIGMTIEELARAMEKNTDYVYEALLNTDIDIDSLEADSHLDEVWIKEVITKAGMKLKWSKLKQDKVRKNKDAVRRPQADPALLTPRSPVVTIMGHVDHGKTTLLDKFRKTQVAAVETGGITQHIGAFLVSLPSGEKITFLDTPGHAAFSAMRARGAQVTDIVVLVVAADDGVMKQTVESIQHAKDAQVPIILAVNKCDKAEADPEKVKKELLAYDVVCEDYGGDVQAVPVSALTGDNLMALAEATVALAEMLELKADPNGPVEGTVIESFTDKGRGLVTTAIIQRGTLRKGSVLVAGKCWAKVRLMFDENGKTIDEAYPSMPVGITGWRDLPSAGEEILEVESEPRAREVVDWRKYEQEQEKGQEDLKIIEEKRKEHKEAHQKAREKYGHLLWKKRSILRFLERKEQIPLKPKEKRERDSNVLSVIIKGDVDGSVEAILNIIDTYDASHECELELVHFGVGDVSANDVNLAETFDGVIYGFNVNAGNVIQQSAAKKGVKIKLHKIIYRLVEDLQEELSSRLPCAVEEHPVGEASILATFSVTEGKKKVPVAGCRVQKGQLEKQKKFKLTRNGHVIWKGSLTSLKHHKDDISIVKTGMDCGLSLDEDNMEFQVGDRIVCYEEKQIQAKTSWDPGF
# UniProt P49773: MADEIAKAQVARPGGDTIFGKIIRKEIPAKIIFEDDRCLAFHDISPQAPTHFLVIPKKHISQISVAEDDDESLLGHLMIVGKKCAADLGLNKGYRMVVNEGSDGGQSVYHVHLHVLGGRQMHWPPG
# UniProt P46108: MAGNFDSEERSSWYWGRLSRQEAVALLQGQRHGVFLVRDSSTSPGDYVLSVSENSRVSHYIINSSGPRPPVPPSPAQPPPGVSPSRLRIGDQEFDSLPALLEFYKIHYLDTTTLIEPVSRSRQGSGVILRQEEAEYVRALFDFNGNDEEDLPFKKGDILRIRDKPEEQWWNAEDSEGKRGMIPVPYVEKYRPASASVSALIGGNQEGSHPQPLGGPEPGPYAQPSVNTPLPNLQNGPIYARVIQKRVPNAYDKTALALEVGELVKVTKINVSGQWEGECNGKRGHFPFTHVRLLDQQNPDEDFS
# UniProt P52294, whole entry: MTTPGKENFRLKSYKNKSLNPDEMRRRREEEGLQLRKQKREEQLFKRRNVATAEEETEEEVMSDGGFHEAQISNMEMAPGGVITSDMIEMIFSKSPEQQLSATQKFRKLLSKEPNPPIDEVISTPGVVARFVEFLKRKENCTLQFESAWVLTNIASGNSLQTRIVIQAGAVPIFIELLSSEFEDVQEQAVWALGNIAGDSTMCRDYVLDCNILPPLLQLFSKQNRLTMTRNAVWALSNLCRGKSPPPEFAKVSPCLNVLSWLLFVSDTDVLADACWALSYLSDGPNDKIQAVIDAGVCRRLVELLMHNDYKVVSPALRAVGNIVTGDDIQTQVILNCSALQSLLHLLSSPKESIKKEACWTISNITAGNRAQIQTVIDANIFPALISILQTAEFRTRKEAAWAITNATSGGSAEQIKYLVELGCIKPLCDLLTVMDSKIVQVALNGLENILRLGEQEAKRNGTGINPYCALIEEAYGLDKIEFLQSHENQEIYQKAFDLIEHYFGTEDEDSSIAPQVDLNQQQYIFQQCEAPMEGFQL
# UniProt P51817: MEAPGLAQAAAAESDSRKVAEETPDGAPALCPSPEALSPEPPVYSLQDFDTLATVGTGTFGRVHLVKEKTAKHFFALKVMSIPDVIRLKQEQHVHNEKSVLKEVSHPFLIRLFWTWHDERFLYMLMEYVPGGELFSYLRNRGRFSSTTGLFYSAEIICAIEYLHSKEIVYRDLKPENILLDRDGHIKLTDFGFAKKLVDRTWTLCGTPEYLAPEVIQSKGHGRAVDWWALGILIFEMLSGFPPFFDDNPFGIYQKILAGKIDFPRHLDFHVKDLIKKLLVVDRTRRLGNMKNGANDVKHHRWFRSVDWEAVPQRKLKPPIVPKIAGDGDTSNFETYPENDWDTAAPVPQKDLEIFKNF
# UniProt P53567: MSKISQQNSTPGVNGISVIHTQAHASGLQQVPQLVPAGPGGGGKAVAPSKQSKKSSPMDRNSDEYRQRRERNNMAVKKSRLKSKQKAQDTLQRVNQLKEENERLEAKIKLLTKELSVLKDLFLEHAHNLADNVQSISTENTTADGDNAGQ
# This is one part of the list. Most values lie at the level of the controls, where differences are scatter.
# Compound: Cc1nc(Nc2ncc(C(=O)Nc3c(C)cccc3Cl)s2)cc(N2CCN(CCO)CC2)n1 [dasatinib]
# Assay: log2 fold change of tryptic peptide abundance, ligand vs vehicle (limited proteolysis) (log2 ratio); higher = more trypsin-susceptible (destabilized)
# Settings: ligand concentration: 5 uM; sample: K562 cleared lysate
row,Target,log2 fold change
1,"AGFG1 (peptide sequence: SLLGDSAPTLHLNK, peptide start residue: 162) (UniProt P52594)",-0.111
2,"STAT2 (peptide sequence: ILQETLNELDKR, peptide start residue: 198) (UniProt P52630)",0.58
3,"MTIF2 (peptide sequence: AEADPEKVKK, peptide start residue: 293) (UniProt P46199)",-0.792
4,"HINT1 (peptide sequence: PGGDTIFGK, peptide start residue: 13) (UniProt P49773)",0.0727
5,"CRK (peptide sequence: GMIPVPYVEK, peptide start residue: 180) (UniProt P46108)",0.236
6,"CAPZA1 (peptide sequence: RQLPVTR, peptide start residue: 260) (UniProt P52907)",0.246
7,"KPNA1 (peptide sequence: SLNPDEMRR, peptide start residue: 18) (UniProt P52294)",-0.532
8,"PRKX (peptide sequence: LFWTWHDER, peptide start residue: 112) (UniProt P51817)",0.362
9,"CEBPG (peptide sequence: VNQLKEENERLEAK, peptide start residue: 94) (UniProt P53567)",-0.0372
